Values from PubChem BioAssay AID602196 (INSERM, 2012)

Aim: 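Genes whose knock-down alters cisplatin killing of lung cancer cells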
Cell system: human A549 lung cancer cells
Reagents: siRNA pair against human genes
Duration: 48 h transfection before cisplatin; time from cisplatin to read-out not stated
Treatment: cisplatin at a dose killing half of control-siRNA cells; exact dose and duration not given
Measured: 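Cisplatin cell death as a shift from the 50% death seen with control siRNA; siRNAs toxic or growth-blocking alone scored 0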
Reading the numbers: two-siRNA summed score (-2 to +2): higher = both siRNAs protect from cisplatin killing; -2 means both sensitise
Call rule: 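Each siRNA scores 0 if harmful alone by LDH or WST-1, otherwise +1 if it reduces and -1 if it increases cisplatin killing; a gene is active when both siRNAs agree (sum +2 or -2)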
Calls: active = both siRNAs shift cisplatin killing the same way; inactive = no consistent shift, or siRNA harmful alone
This is a random part of about 23,000 deposited reagents. Over the whole deposit, 455 (2%) were called active. 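Active includes both protection and sensitisation; some change values fall well beyond the stated -50 to +50 range.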 Not all columns of the deposit are shown. The record does not give: the amount of reagent.

gene | two-siRNA summed score (-2 to +2) | outcome
CRACD | 0 | inactive
TNFRSF18 | 0 | inactive
CATSPERH | 0 | inactive
DHRSX | 1 | inactive
ZC3H4 | 0 | inactive
LOC340109 | 1 | inactive
LOC440020 | 0 | inactive
SLC8B1 | 0 | inactive
POU2F3 | 0 | inactive
KLRC4 | -2 | active
KRTAP4-3 | 0 | inactive
FZD8 | 0 | inactive
LBHD1 | 0 | inactive
GNGT1 | 0 | inactive
LOC284106 | 1 | inactive
LOC440387 | 1 | inactive
ACTR10 | 0 | inactive
C11orf65 | 0 | inactive
NEK9 | 0 | inactive
SERPINA9 | 0 | inactive
PRPF19 | 0 | inactive
SPINT4 | 0 | inactive
CFAP161 | -1 | inactive
HOXD9 | -1 | inactive
FGA | 0 | inactive
LOC440479 | 0 | inactive
EIF4A3 | 0 | inactive
CD72 | 0 | inactive
LUZP1 | 0 | inactive
LOC400144 | 0 | inactive
ENTPD1 | 0 | inactive
ZNF16 | 1 | inactive
LOC220998 | 1 | inactive
IPCEF1 | 0 | inactive
S100A12 | 0 | inactive
METTL21A | 0 | inactive
ATIC | 1 | inactive
TRAPPC9 | 0 | inactive
TRIM41 | -1 | inactive
